In PubChem BioAssay AID1487 (National Center for Advancing Translational Sciences (NCATS), 2009):
Some of the results follow. These are further read-outs of the screen, such as a control signal, another cell line or another target. No call is given for them. Compounds called inactive in the main read-out are mostly missing here. The note in brackets gives the kind of curve behind each potency; many fits are weak.

Test: qHTS Assay for Modulators of Lamin A Splicing
Conditions: HeLa LMNA splicing GFP/RFP minigene ratio, 48 h
Method in brief: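 S3 HeLa stable clones carrying a lamin A-EGFP splicing minigene plus DsRed2 were seeded at 600 cells/well in Opti-MEM with 2% FBS, pin-dosed and incubated 48 h at 37°C. Acumen cytometry (488 nm) gave the GFP/RFP total-intensity ratio.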

[1] = measured here: GFP splicing reporter channel
[2] = measured here: RFP viability control channel

| SMILES | AC50 [1] | AC50 [2] |
| --- | --- | --- |
| O=c1[nH]c2cc(Cl)ccc2c(O)c1-c1ccc(Oc2ccccc2)cc1 | 0.000891 µM [falling, full curve, poor fit] | 0.000891 µM [falling, full curve, poor fit] |
| CCN(CC)S(=O)(=O)c1nnc(NC(=O)c2ccc(C(C)C)cc2)s1 | – | 11.2 µM [falling, partial curve, poor fit] |
| C=CC(=O)NC(NC(=O)C=C)c1ccc(Br)cc1 | 35.5 µM [falling, single point] | – |
| COCCN(C(=O)Cc1cccs1)c1nnc(-c2cccnc2)s1 | 6.31 µM [rising, partial curve] | – |
| Cc1ccc(S(=O)(=O)N2CCC(=O)N(C(COCc3cccc(Cl)c3)Cc3ccccc3)CC2)cc1 (stereo unspecified) | 11.2 µM [rising, single point] | 31.6 µM [rising, single point] |
| Cn1c(/C=C/N2CCOCC2)c(C(=O)c2ccc(Br)cc2)c(=O)n(C)c1=O | – | 11.2 µM [rising, partial curve] |
| CC(O)CC(C(=O)NNc1ccccc1)C(=O)NNc1ccccc1 (stereo unspecified) | – | 2.51 µM [rising, full curve] |
| COc1ccc(CNC(=O)C2CCN(C(=O)N3CC(C)Oc4ccc(C)cc43)CC2)cc1 (stereo unspecified) | – | 8.91 µM [falling, full curve] |
| O=C1OC(c2ccc(F)cc2)=N/C1=C\c1ccc(Br)o1 | – | 0.562 µM [falling, full curve, poor fit] |
| CN(C)c1ccc(/C=N/NC(=O)c2ccccc2Cl)cc1 | – | 17.8 µM [rising, partial curve] |
| O=C(c1cccs1)N1N=C(c2ccccc2)CC1c1ccccc1 (stereo unspecified) | – | 15.8 µM [rising, single point] |
| COc1ccc(NS(=O)(=O)c2ccc(N3CCOCC3)c(NC(=O)c3ccc(OC)cc3)c2)cc1 | – | 10 µM [rising, partial curve] |
| O=C1CCCN1C(=O)CCC(=O)N1CCCC1=O | 0.708 µM [rising, full curve, poor fit] | 1.26 µM [rising, partial curve] |
| O=C(NNC(=S)Nc1ccc(Cl)cc1Cl)c1ccc(N2CCOCC2)c([N+](=O)[O-])c1 | – | 31.6 µM [rising, single point] |
| O=C(CSc1cn(CCNC(=O)c2ccc3ccccc3c2)c2ccccc12)NCc1ccco1 | – | 8.91 µM [rising, partial curve] |
| CCOC(=O)C1CCCN(Cc2nc(N)nc(Nc3ccc(OC)cc3)n2)C1 (stereo unspecified) | – | 28.2 µM [rising, single point] |
| CCOC(=O)COc1ccc(Br)cc1/C=C\c1[nH]c(=O)[nH]c(=O)c1[N+](=O)[O-] | – | 3.16 µM [rising, single point] |
| CCc1ccc(NC(=O)CSc2nc3ccccc3c(=O)n2CCN2CCOCC2)cc1 | – | 31.6 µM [rising, single point] |
| COc1cc(C(=O)OCC(=O)NC2CCS(=O)(=O)C2)c([N+](=O)[O-])cc1OC (stereo unspecified) | 17.8 µM [rising, partial curve] | 7.94 µM [rising, partial curve, poor fit] |
| Cc1ccc(C(=O)Oc2ccc(N3C(=O)CCC3=O)c(C)c2)cc1 | – | 0.0708 µM [rising, full curve, poor fit] |
| CCOC(=O)c1ccc(OC(=O)CCCCCN=C(N)N)cc1 | 0.708 µM [falling, partial curve, poor fit] | – |
| Cc1cccc(C(=O)NCc2nnc(SCC(=O)NC(C)c3ccccc3)n2C)c1 (stereo unspecified) | 3.16 µM [falling, partial curve, poor fit] | 3.98 µM [falling, single point] |
| Nc1nc(NC(=O)c2ccc(Cl)cc2)nn1-c1ccccc1 | – | 17.8 µM [rising, single point] |
| Clc1cccc(Cl)c1-c1nnc2cccc(Cl)n12 | – | 8.91 µM [rising, partial curve] |
| OCc1ccc(O)c2ncccc12 | 0.0282 µM [falling, partial curve] | 0.0316 µM [falling, partial curve] |
| COc1ccc(CNC(=O)CSc2ccc(Br)cc2)cc1OC | 0.0126 µM [falling, full curve] | – |
| O=C(COc1ccccc1Br)NCCc1nc2ccccc2[nH]1 | – | 12.6 µM [rising, single point] |
| Cc1cccc2c(C(=O)O)cc(-c3cccnc3)nc12 | – | 0.0178 µM [falling, full curve, poor fit] |

| SMILES | AC50 [1] | AC50 [2] |
| --- | --- | --- |
| CCN(CC)CCCNC(=O)c1cc2c(-c3ccc(Cl)cc3)nn(C)c2s1 | 10 µM [rising, partial curve] | 12.6 µM [rising, partial curve] |
| CCOC(=O)c1c(C)[nH]c(C(=O)OC/C(O)=C(\C#N)c2nc3ccccc3[nH]2)c1C | 35.5 µM [falling, single point] | 35.5 µM [falling, single point] |
| CN(C)CCNC(=O)/C(=C/c1ccc(-c2cccc(Cl)c2)o1)NC(=O)c1ccccc1 | – | 0.0562 µM [rising, full curve] |
| COc1ccc(NC(=O)CCCN(C)S(=O)(=O)c2ccc(C)cc2)cc1 | 35.5 µM [rising, single point] | 22.4 µM [rising, single point] |
| COc1ccccc1C1NC=C([N+](=O)[O-])C=C1[N+](=O)[O-] (stereo unspecified) | 12.6 µM [rising, single point] | – |
| Cc1cccc(-n2ncc(C(=O)NCc3ccccn3)c2C2CCN(C(=O)OC(C)(C)C)CC2)c1 | – | 0.0224 µM [falling, full curve, poor fit] |
| CCN(CC)S(=O)(=O)c1cccc(NC(=O)COc2ccc(C#N)cc2OC)c1 | 35.5 µM [rising, single point] | 35.5 µM [rising, single point] |
| O=C(Cn1c(=O)oc2cc(S(=O)(=O)N3CCCC3)ccc21)NC1CCCc2ccccc21 (stereo unspecified) | 0.794 µM [falling, partial curve, poor fit] | 0.794 µM [falling, single point] |
| CCC(Sc1ncccc1C(=O)O)C(=O)N1CCOCC1 (stereo unspecified) | 0.501 µM [falling, full curve, poor fit] | 0.501 µM [falling, full curve, poor fit] |
| O=C(COc1ccc(Cl)cc1Cl)N/N=C1\CCCc2ccccc21 | 10 µM [rising, partial curve] | 11.2 µM [rising, partial curve] |
| CN(C)/C=C/C(=O)/C=C/c1ccc(Cl)cc1 | 22.4 µM [falling, partial curve, poor fit] | 31.6 µM [falling, partial curve] |
| CCCC(C(=O)OCCN(CC)CC)(c1ccccc1)c1ccccc1 | 0.0224 µM [falling, full curve, poor fit] | 0.501 µM [falling, partial curve, poor fit] |
| O=C(CN1C(=O)/C(=C/c2c(F)cccc2Cl)Oc2ccccc21)NCc1ccco1 | 3.16 µM [falling, full curve] | – |
| CCOc1ccc(Br)cc1CNCCSc1nnnn1-c1ccccc1 | – | 0.0631 µM [falling, full curve, poor fit] |
| COc1ccc(CNS(=O)(=O)NCc2ccccc2)cc1OC | 2.51 µM [falling, full curve] | 10 µM [falling, single point] |
| CCOC(=O)c1c(NC(=O)CSc2nnc(-c3c[nH]c4ccccc34)n2CCOC)sc2c1CCCCC2 | 17.8 µM [rising, single point] | 35.5 µM [rising, single point] |
| Cc1ccc2c(c1)C1NC(=S)NC(C)(O2)C1C(=O)Nc1ccc(Cl)cc1 (stereo unspecified) | – | 0.126 µM [rising, full curve, poor fit] |
| CC1CN(C(=O)C(C)N2CCN(c3ccccc3Cl)CC2)CC(C)O1 (stereo unspecified) | 2.82 µM [rising, single point] | – |
| c1ccc2sc(-c3ccc4c(c3)OCO4)nc2c1 | – | 11.2 µM [rising, partial curve, poor fit] |
| CCc1ccccc1NC(=O)CN1C(=O)c2cccnc2Oc2ccc(Cl)cc21 | 0.0224 µM [falling, full curve, poor fit] | – |
| N#C/C(=C\c1cc2ccccc2nc1N1CCOCC1)C(=O)Nc1ccc(N2CCOCC2)cc1 | 35.5 µM [rising, single point] | 35.5 µM [rising, single point] |
| CC(C)CNS(=O)(=O)c1ccc(OCC(=O)Nc2ccc3c(c2)OCCO3)cc1 | 35.5 µM [rising, single point] | – |
| Cc1ccc(C)c(NC(=O)C(=O)NCCc2csc3nc(-c4ccccc4C)nn23)c1 | 25.1 µM [falling, partial curve, poor fit] | 3.98 µM [falling, partial curve, poor fit] |
| CCN(CC)S(=O)(=O)c1ccc(S(=O)(=O)Nc2ccc(C(=O)N3CCCC3)cc2)cc1 | – | 10 µM [rising, partial curve, poor fit] |
| O=c1c(Cc2c(F)cccc2Cl)c(O)ccn1CC1CCCO1 (stereo unspecified) | 0.398 µM [rising, full curve, poor fit] | – |
| COc1ccc(-c2oc(NC(=O)CCl)c(C#N)c2-c2ccc(OC)cc2)cc1 | 35.5 µM [falling, single point] | 35.5 µM [falling, single point] |
| CC(C)(C)c1ccc(C(=O)Nc2cccc([N+](=O)[O-])c2)cc1 | 15.8 µM [rising, partial curve] | 35.5 µM [rising, single point] |

Ordered by length of the SMILES (low to high): 14 of the compounds above

| SMILES | AC50 [1] | AC50 [2] |
| --- | --- | --- |
| Cc1cccc2c(C(=O)O)cc(-c3cccnc3)nc12 | – | 0.0178 µM [falling, full curve, poor fit] |
| O=c1c(Cc2c(F)cccc2Cl)c(O)ccn1CC1CCCO1 (stereo unspecified) | 0.398 µM [rising, full curve, poor fit] | – |
| COCCN(C(=O)Cc1cccs1)c1nnc(-c2cccnc2)s1 | 6.31 µM [rising, partial curve] | – |
| O=C(COc1ccc(Cl)cc1Cl)N/N=C1\CCCc2ccccc21 | 10 µM [rising, partial curve] | 11.2 µM [rising, partial curve] |
| CC1CN(C(=O)C(C)N2CCN(c3ccccc3Cl)CC2)CC(C)O1 (stereo unspecified) | 2.82 µM [rising, single point] | – |
| COc1ccc(NC(=O)CCCN(C)S(=O)(=O)c2ccc(C)cc2)cc1 | 35.5 µM [rising, single point] | 22.4 µM [rising, single point] |
| O=c1[nH]c2cc(Cl)ccc2c(O)c1-c1ccc(Oc2ccccc2)cc1 | 0.000891 µM [falling, full curve, poor fit] | 0.000891 µM [falling, full curve, poor fit] |
| Cc1ccc2c(c1)C1NC(=S)NC(C)(O2)C1C(=O)Nc1ccc(Cl)cc1 (stereo unspecified) | – | 0.126 µM [rising, full curve, poor fit] |
| Cn1c(/C=C/N2CCOCC2)c(C(=O)c2ccc(Br)cc2)c(=O)n(C)c1=O | – | 11.2 µM [rising, partial curve] |
| N#C/C(=C\c1cc2ccccc2nc1N1CCOCC1)C(=O)Nc1ccc(N2CCOCC2)cc1 | 35.5 µM [rising, single point] | 35.5 µM [rising, single point] |
| CCN(CC)S(=O)(=O)c1ccc(S(=O)(=O)Nc2ccc(C(=O)N3CCCC3)cc2)cc1 | – | 10 µM [rising, partial curve, poor fit] |
| O=C(NNC(=S)Nc1ccc(Cl)cc1Cl)c1ccc(N2CCOCC2)c([N+](=O)[O-])c1 | – | 31.6 µM [rising, single point] |
| CCOC(=O)c1c(C)[nH]c(C(=O)OC/C(O)=C(\C#N)c2nc3ccccc3[nH]2)c1C | 35.5 µM [falling, single point] | 35.5 µM [falling, single point] |
| CCOC(=O)COc1ccc(Br)cc1/C=C\c1[nH]c(=O)[nH]c(=O)c1[N+](=O)[O-] | – | 3.16 µM [rising, single point] |
